Laboratory results from paper PMC6194859.
The exact form of at least one protein or probe is not confirmed. The comparison behind a weaker result is the experiment's own reference, which may not be listed here.

Biological target: T1, PhoB~P (phosphorylated PhoB) (Escherichia coli) (UniProt P0AFJ5)
T1 sequence: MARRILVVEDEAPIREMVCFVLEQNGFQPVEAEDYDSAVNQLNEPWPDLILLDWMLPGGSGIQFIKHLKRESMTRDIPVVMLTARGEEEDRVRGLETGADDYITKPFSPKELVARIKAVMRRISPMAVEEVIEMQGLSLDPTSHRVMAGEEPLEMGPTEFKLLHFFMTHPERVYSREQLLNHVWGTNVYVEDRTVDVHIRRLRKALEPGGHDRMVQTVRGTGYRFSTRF
Assay: EMSA
Conditions: 50 mM Tris pH 7.6, 200 mM NaCl, 0.1 mg/ml BSA, 2 mM MgCl2, 1 mM DTT, 5% glycerol, ~0.1 uM DNA (mM in the source), 15 uM nonfluorescent competitor dsDNA, 30 min, recombinant protein, label: 5'-FAM on strand 1

Sequence	Kd (phosphoramidate-phosphorylated PhoB, Hill fit) [mM]	binding result (phosphoramidate-phosphorylated PhoB up to 8.4 uM, little binding)
AATGCGACGTCATTATGCGTCAGATTTAT (double strand) [phoB-rp (repression site, antisense strand)]	0.0049	
AATGCGAGCACATTATGGAACAGATTTAT (double strand) [phoB-rp2 (repression site mutant)]		binds more weakly
